No constants are given. Whether binding was seen depends on the method and setting. Some results given as binding are weak or reduced against the parent protein; the word gives no strength.
Experiments:
Eotaxin 1 (CCL11) [1] = biological target: T1, Eotaxin 1 (CCL11) (human, UniProt P51671 24-97); test: SPR (Biacore T200)
T1 construct: also called human CCL11

The chains behind the UniProt entries cited, without tags or fusion partners. Residues count along the entry.
UniProt P51671, residues 24-97: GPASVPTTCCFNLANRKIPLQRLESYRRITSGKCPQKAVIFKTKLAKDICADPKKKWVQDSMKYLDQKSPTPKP
UniProt P80098, residues 24-99: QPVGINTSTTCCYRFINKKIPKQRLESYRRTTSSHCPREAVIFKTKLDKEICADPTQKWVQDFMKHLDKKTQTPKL

MCP3 (CCL7) [2] = biological target: MCP3 (CCL7) (UniProt P80098); test: SPR (Biacore T200)
Eotaxin 1 (CCL11) [3] = biological target: T1, Eotaxin 1 (CCL11); test: SPR (Biacore), referred back to
MCP3 (CCL7) [4] = biological target: MCP3 (CCL7) (UniProt P80098); test: SPR (Biacore), referred back to

Measured: binding

B1: fully humanized anti CCL24 antibody HCM101 (antibody, V domains shown)
VH: QIQLVQSGPELKKPGASVKVSCRASGYPFTNSGMNWVKQAPGKGLKWMGWINTYNGEPTYTDDFKGRFAFSLETSASTAYLQINNLRNEDTATYFCASHSYGSSYAMDNWGQGTSVTVSS
VL: DIVLTQSPDSLAVSLGERATINCKASQSVDYDGDSYMNWYQQKPGQPPKLLIYVASNLKSGIPARFSGSGSGTDFTLTISSLQPEDFATYYCQQSNEEPWTFGGGTKVEIK
notes: also called humanized version of CM101
binds: all assays above
